Reference: US20250186423A1, “METHODS OF TREATING CANCER AND OTHER CONDITIONS WITH A MU OPIOID RECEPTOR ANTAGONIST” (priority 2022, published 2025)
Some results were stated once for a whole list of compounds, not compound by compound.

Test system: Mouse colon cancer (MC38) cells
Test: Syngeneic mouse colon cancer model
Assay type: in vivo, mice (C57BL6)
Settings: each agent individually, vs vehicle
Experimental: The syngeneic mouse model assay (FIG. 3B) allows a complete system where tumor progression is quantified in the presence of endogenous immune surveillance and an active gut microbiome.
Mouse colon cancer (MC38) cells were amplified in vitro prior to implantation. On the day of injection, cells were harvested, counted including a trypan blue viability dye (cut-off 80%), and resuspended in PBS at the appropriate concentration. The cells were injected subcutaneously in the right flank of Female mice (C57BL6), 5 weeks of age (18-22 gm body weight) at 5.106 cells/mouse in 200 μL PBS within 30 minutes after harvesting. After 15-18 days of tumor growth, mice were randomized into treatment groups at 10 animals/group. Animals were weighed thrice weekly and tumor growth measured using callipers. The tumour volume (TV) was extrapolated to a sphere using the formula shown below: […]
by calculating the mean radius from the two measurements.
The results of these studies are shown in FIG. 12A, 12B, 13 as well as Table 2-3. The tumor growth curves in animals treated with the MOR antagonist, axelopran, mouse anti-PD-1 or a combination of both treatments are shown in FIGS. 12A and 12B. FIG. 12A and FIG. 12B show MC38 colon cancer tumor growth in syngeneic mice treated with Vehicle (Control), axelopran (1 mg/kg, p.o. daily), mouse anti-PD-1 (12.5 mg/kg i.p.,3×-weekly) or axelopran plus anti-PD-1.

## NC(=O)c1cccc(C2CC3CCC(C2)N3CCN(CC2CCCCC2)C(=O)[C@@H](O)CO)c1 (stereo partly drawn) [axelopran, 3-[(1R,3r,5S)-8-(2-{(cyclohexylmethyl)[(2S)-2,3-dihydroxypropanoyl]amino}ethyl)-8-azabicyclo[3.2.1]octan-3-yl]benzamide]
  slower tumor progression (numerically, not statistically significant): 10-16%
